Data: publication PMC5833342
These are yes or no findings as the source states them, for the method shown. Binding seen in cells or lysates may run through a third protein. Here binding means that the protein was enriched with, or labelled near, the bait; the list need not be complete.

Sequences of proteins named here, by UniProt entry; tags and fusion partners are left off. Residues count along the entry.
UniProt P10451, residues 17-314: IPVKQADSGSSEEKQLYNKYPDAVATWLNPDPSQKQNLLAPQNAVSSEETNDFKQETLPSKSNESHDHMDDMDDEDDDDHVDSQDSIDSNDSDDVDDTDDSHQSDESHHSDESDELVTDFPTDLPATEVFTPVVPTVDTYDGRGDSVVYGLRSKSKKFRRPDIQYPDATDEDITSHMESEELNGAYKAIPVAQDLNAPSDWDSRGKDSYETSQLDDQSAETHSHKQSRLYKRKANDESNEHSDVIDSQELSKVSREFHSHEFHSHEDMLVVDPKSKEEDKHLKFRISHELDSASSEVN
UniProt P35222: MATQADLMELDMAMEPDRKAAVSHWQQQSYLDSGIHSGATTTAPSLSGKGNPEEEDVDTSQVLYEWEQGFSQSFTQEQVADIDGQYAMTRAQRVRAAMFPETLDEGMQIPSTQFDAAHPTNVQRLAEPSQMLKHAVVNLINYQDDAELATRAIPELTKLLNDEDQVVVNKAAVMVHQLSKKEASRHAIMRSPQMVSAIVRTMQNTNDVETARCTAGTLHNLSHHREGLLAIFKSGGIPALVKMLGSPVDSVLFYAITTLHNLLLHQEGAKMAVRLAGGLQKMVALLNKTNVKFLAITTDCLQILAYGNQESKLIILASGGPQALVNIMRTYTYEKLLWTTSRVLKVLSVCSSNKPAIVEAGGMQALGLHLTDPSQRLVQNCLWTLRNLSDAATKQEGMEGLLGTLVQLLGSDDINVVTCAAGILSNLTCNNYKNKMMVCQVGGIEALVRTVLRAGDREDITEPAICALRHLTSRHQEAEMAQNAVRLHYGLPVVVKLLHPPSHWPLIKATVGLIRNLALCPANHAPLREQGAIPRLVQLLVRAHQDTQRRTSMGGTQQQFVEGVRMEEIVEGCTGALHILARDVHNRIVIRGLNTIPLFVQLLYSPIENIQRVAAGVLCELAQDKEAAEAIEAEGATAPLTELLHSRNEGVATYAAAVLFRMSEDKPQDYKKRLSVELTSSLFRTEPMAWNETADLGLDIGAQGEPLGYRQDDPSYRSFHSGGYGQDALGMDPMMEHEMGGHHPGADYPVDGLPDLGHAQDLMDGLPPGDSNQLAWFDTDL

Biological target: Flag-OPN (Osteopontin) (UniProt P10451)
Assay: affinity purification with mass spectrometry; CCLP1 cells transfected with Flag-OPN or empty vector; immunoprecipitation by anti-Flag mAb; silver staining and MS of coprecipitated proteins

binding: binds
Substance: β-Catenin, endogenous (from UniProt P35222 1-781)
